# Reference: the supplement of paper PMC8728848
# This is one part of the list.
# What was measured:
# Assay in all cases: glycan array binding signal (z-score within array); higher = stronger binding
# Settings in all cases: glycan notation: IUPAC condensed, linker removed
# [1] = biological target: Fuc(a1-2)Gal(b1-4)GlcNAc(b1-3)Gal(b1-4)GlcNAc(b1-3)Gal(b1-4)GlcNAc
# Method in brief: (§1)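 Arrays were curated from the Consortium for Functional Glycomics database, 3228 in total, and kept only where the protein sequence was available. Binding is expressed as a within-array Z-score. This score was averaged across arrays of the same protein sequence at different concentrations or buffers and across linkers, and negative values can be read as non-binding.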
# [2] = biological target: Fuc(a1-2)Gal(b1-4)GlcNAc(b1-3)GalNAc
# Method in brief: as §1
# [3] = biological target: Fuc(a1-2)Gal(b1-4)GlcNAc(b1-3)[Fuc(a1-2)Gal(b1-4)GlcNAc(b1-6)]GalNAc
# Method in brief: as §1
# [4] = biological target: Fuc(a1-2)Gal(b1-4)GlcNAc(b1-3)[Fuc(a1-3)[Gal(b1-4)]GlcNAc(b1-6)]Gal(b1-4)Glc
# Method in brief: as §1
# [5] = biological target: Fuc(a1-2)Gal(b1-4)GlcNAc(b1-6)GalNAc
# Method in brief: as §1
# [6] = biological target: Fuc(a1-2)Gal(b1-4)GlcNAc6S
# Method in brief: as §1
# [7] = biological target: Fuc(a1-2)Gal(b1-4)[Fuc(a1-3)]GlcNAc
# Method in brief: as §1
# [8] = biological target: Fuc(a1-2)Gal(b1-4)[Fuc(a1-3)]GlcNAc(b1-2)Man(a1-3)[Fuc(a1-2)Gal(b1-4)[Fuc(a1-3)]GlcNAc(b1-2)Man(a1-6)]Man(b1-4)GlcNAc(b1-4)[Fuc(a1-6)]GlcNAc
# Method in brief: as §1
# [9] = biological target: Fuc(a1-2)Gal(b1-4)[Fuc(a1-3)]GlcNAc(b1-2)[Fuc(a1-2)Gal(b1-4)[Fuc(a1-3)]GlcNAc(b1-4)]Man(a1-3)[Fuc(a1-2)Gal(b1-4)[Fuc(a1-3)]GlcNAc(b1-2)Man(a1-6)]Man(b1-4)GlcNAc(b1-4)GlcNAc
# Method in brief: as §1
# [10] = biological target: Fuc(a1-2)Gal(b1-4)[Fuc(a1-3)]GlcNAc(b1-3)Gal(b1-4)[Fuc(a1-3)]GlcNAc
# Method in brief: as §1
# [11] = biological target: Fuc(a1-2)Gal(b1-4)[Fuc(a1-3)]GlcNAc(b1-3)Gal(b1-4)[Fuc(a1-3)]GlcNAc(b1-3)Gal(b1-4)[Fuc(a1-3)]GlcNAc
# Method in brief: as §1
# [12] = biological target: Fuc(a1-2)Gal(b1-4)[Fuc(a1-3)]GlcNAc(b1-3)GalNAc
# Method in brief: as §1
# [13] = biological target: Fuc(a1-2)Gal(b1-4)[Fuc(a1-3)]GlcNAc(b1-3)[Neu5Ac(a2-6)Gal(b1-4)GlcNAc(b1-6)]Gal(b1-4)Glc
# Method in brief: as §1
# [14] = biological target: Fuc(a1-2)Gal3S(b1-4)GlcNAc
# Method in brief: as §1
# [15] = biological target: Fuc(a1-2)Gal6S(b1-3)GlcNAc
# Method in brief: as §1
# [16] = biological target: Fuc(a1-2)Gal6S(b1-3)GlcNAc6S
# Method in brief: as §1
# Fuc(a1-2)Gal6S(b1-4)Glc = biological target: Fuc(a1-2)Gal6S(b1-4)Glc
# Method in brief: as §1
# [17] = biological target: Fuc(a1-2)Gal6S(b1-4)Glc6S
# Method in brief: as §1
# Fuc(a1-2)[Gal(a1-3)]Gal = biological target: Fuc(a1-2)[Gal(a1-3)]Gal
# Method in brief: as §1
# [18] = biological target: Fuc(a1-2)[Gal(a1-3)]Gal(b1-3)GalNAc
# Method in brief: as §1
# [19] = biological target: Fuc(a1-2)[Gal(a1-3)]Gal(b1-3)GalNAc(b1-3)Gal(a1-4)Gal(b1-4)Glc
# Method in brief: as §1
# [20] = biological target: Fuc(a1-2)[Gal(a1-3)]Gal(b1-3)GlcNAc
# Method in brief: as §1
# [21] = biological target: Fuc(a1-2)[Gal(a1-3)]Gal(b1-3)GlcNAc(b1-2)Man(a1-3)[Fuc(a1-2)[Gal(a1-3)]Gal(b1-3)GlcNAc(b1-2)Man(a1-6)]Man(b1-4)GlcNAc(b1-4)GlcNAc
# Method in brief: as §1
# [22] = biological target: Fuc(a1-2)[Gal(a1-3)]Gal(b1-3)GlcNAc(b1-2)Man(a1-3)[Fuc(a1-2)[Gal(a1-3)]Gal(b1-3)GlcNAc(b1-2)Man(a1-6)]Man(b1-4)GlcNAc(b1-4)[Fuc(a1-6)]GlcNAc
# Method in brief: as §1
# [23] = biological target: Fuc(a1-2)[Gal(a1-3)]Gal(b1-3)GlcNAc(b1-3)GalNAc
# Method in brief: as §1
# [24] = biological target: Fuc(a1-2)[Gal(a1-3)]Gal(b1-3)GlcNAc(b1-6)GalNAc
# Method in brief: as §1
# [25] = biological target: Fuc(a1-2)[Gal(a1-3)]Gal(b1-4)Glc
# Method in brief: as §1
# [26] = biological target: Fuc(a1-2)[Gal(a1-3)]Gal(b1-4)GlcNAc
# Method in brief: as §1
# [27] = biological target: Fuc(a1-2)[Gal(a1-3)]Gal(b1-4)GlcNAc(b1-2)Man
# Method in brief: as §1
# [28] = biological target: Fuc(a1-2)[Gal(a1-3)]Gal(b1-4)GlcNAc(b1-2)Man(a1-3)[Fuc(a1-2)[Gal(a1-3)]Gal(b1-4)GlcNAc(b1-2)Man(a1-6)]Man(b1-4)GlcNAc(b1-4)GlcNAc
# Method in brief: as §1
binder,measurement,setting,value
OS9 (Arabidopsis thaliana) (protein) MRGSHHHHHHGMASMTGGQQMGRDLYDDDDKSRLQIFPAHLVGTFSRNNREPKYKIEFLPEDSPFHPGDNLESMVMLDKHGNRFLCYLPKEEKATSGWTSSQQNISTVMMETQQLVKLKTPDELLQPLSEKCLFRQEGWWSYEFCHQKYVRQLHVEDENKIVQEFFLGTFDPEATAAFNQTVSDASTDASQRYHSHVYTNGTTCDLTGSPREVEVRFVCAETRAMVTSITELSTCKYALTVQCPTLCKHPLFQLEKPVSHTIHCNAIPVEEDATRNKEEQAVDESPKMIADS,glycan array binding signal (z-score),[1],-0.074
same,glycan array binding signal (z-score),[2],-0.698
same,glycan array binding signal (z-score),[3],-1.29
same,glycan array binding signal (z-score),[4],-1
same,glycan array binding signal (z-score),[5],0.96
same,glycan array binding signal (z-score),[6],-0.119
same,glycan array binding signal (z-score),[7],0.076
same,glycan array binding signal (z-score),[8],-0.608
same,glycan array binding signal (z-score),[9],-0.906
same,glycan array binding signal (z-score),[10],-0.655
same,glycan array binding signal (z-score),[11],4.22
same,glycan array binding signal (z-score),[12],-1.21
same,glycan array binding signal (z-score),[13],-0.385
same,glycan array binding signal (z-score),[14],-1.08
same,glycan array binding signal (z-score),[15],-0.883
same,glycan array binding signal (z-score),[16],-0.434
same,glycan array binding signal (z-score),Fuc(a1-2)Gal6S(b1-4)Glc,0.274
same,glycan array binding signal (z-score),[17],-0.372
same,glycan array binding signal (z-score),Fuc(a1-2)[Gal(a1-3)]Gal,0.588
same,glycan array binding signal (z-score),[18],-0.006
same,glycan array binding signal (z-score),[19],-0.745
same,glycan array binding signal (z-score),[20],-0.352
same,glycan array binding signal (z-score),[21],-0.11
same,glycan array binding signal (z-score),[22],-0.556
same,glycan array binding signal (z-score),[23],0.58
same,glycan array binding signal (z-score),[24],-1.16
same,glycan array binding signal (z-score),[25],-1.36
same,glycan array binding signal (z-score),[26],0.803
same,glycan array binding signal (z-score),[27],-1.04
same,glycan array binding signal (z-score),[28],3.36

# Given with bars between the fields: part of the list above.
binder | measurement | setting | value
OS9 (Arabidopsis thaliana) (protein) MRGSHHHHHHGMASMTGGQQMGRDLYDDDDKSRLQIFPAHLVGTFSRNNREPKYKIEFLPEDSPFHPGDNLESMVMLDKHGNRFLCYLPKEEKATSGWTSSQQNISTVMMETQQLVKLKTPDELLQPLSEKCLFRQEGWWSYEFCHQKYVRQLHVEDENKIVQEFFLGTFDPEATAAFNQTVSDASTDASQRYHSHVYTNGTTCDLTGSPREVEVRFVCAETRAMVTSITELSTCKYALTVQCPTLCKHPLFQLEKPVSHTIHCNAIPVEEDATRNKEEQAVDESPKMIADS | glycan array binding signal (z-score) | [6] | -0.119
same | glycan array binding signal (z-score) | [7] | 0.076
